Measurements reported in PubChem BioAssay AID602196 (INSERM, 2012).
Screen: 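Genes whose knock-down alters cisplatin killing of lung cancer cells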. Cells: human A549 lung cancer cells. Knock-down reagent: siRNA pair against human genes. Time to read-out: 48 h transfection before cisplatin; time from cisplatin to read-out not stated. Challenge: cisplatin at a dose killing half of control-siRNA cells; exact dose and duration not given. Measured: 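Cisplatin cell death as a shift from the 50% death seen with control siRNA; siRNAs toxic or growth-blocking alone scored 0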. Reading the numbers: two-siRNA summed score (-2 to +2): higher = both siRNAs protect from cisplatin killing; -2 means both sensitise; mean protection from cisplatin (shift in death): higher = protection from cisplatin killing. Rule for the call: 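siRNAs harmful alone (LDH or WST-1) get 0; others get +1 for less and -1 for more cisplatin killing; genes are active when the two siRNAs give the same sign, summing to ±2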. Meaning of the calls: active = both siRNAs shift cisplatin killing the same way; inactive = no consistent shift, or siRNA harmful alone.
Shown is one part, drawn at random, of about 23,000 reagents tested. 455 of them (2%) count as active. 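Active includes both protection and sensitisation; some change values fall well beyond the stated -50 to +50 range.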 Unmarked entries are inactive. Further read-outs or replicates are left out here. The record does not give: the amount of reagent.

no.	Gene	two-siRNA summed score (-2 to +2)	mean protection from cisplatin (shift in death) (%)
1	LOC401778	1	10.9
2	C1RL	0	-11.8
3	FAM174C	0	0.1
4	MARCHF2	0	-6.4
5	SIRPD	0	3.2
6	ZNF92	1	15.2
7	RWDD1	1	19.5
8	PCAT4	0	10.8
9	KRT14	0	30.3
10	TRIM51	0	8.1

2 neighbouring records already listed, quoted:
no.	Gene	two-siRNA summed score (-2 to +2)	mean protection from cisplatin (shift in death) (%)
6	ZNF92	1	15.2
7	RWDD1	1	19.5

Continued.
no.	Gene	two-siRNA summed score (-2 to +2)	mean protection from cisplatin (shift in death) (%)
11	DPCD	1	14.8
12	PSMC6	0	5.3
13	LINC00944	0	16.7
14	LOC400809	0	1.9
15	PRKAR2B	-1	-3.5
16	SYTL1	0	9.4
17	MICALL1	0	-2
18	RNF11	0	-26.5
19	LOC440070	0	1.3
20	WDR44	0	2.3
21	NREP	0	9.2
22	ZDHHC22	0	5.1
23	ATP1A2	0	-3.2
